Literature values in patent publication US6656920B2, “Composition and method for promoting oral health” (Amarillo Biosciences, Inc., priority 2000, dated 2003).
At least one structure is not confirmed: it was looked up by name or label, or the drawing left a doubt.

System: subjects with Sjögren's syndrome
Conditions: no sustained benefit in controlled clinical trials; cited from earlier work

In the case of `COc1ccc(-c2cc(=S)ss2)cc1` [anetholetrithione], the salivary output is listed as “increase salivary output transiently”.
